Assay results reported in paper PMC12007708.

Molecular target: T1, FLAG-tagged full-length PF3D7_0811400 (P. falciparum) (UniProt C0H4U0)
T1 sequence: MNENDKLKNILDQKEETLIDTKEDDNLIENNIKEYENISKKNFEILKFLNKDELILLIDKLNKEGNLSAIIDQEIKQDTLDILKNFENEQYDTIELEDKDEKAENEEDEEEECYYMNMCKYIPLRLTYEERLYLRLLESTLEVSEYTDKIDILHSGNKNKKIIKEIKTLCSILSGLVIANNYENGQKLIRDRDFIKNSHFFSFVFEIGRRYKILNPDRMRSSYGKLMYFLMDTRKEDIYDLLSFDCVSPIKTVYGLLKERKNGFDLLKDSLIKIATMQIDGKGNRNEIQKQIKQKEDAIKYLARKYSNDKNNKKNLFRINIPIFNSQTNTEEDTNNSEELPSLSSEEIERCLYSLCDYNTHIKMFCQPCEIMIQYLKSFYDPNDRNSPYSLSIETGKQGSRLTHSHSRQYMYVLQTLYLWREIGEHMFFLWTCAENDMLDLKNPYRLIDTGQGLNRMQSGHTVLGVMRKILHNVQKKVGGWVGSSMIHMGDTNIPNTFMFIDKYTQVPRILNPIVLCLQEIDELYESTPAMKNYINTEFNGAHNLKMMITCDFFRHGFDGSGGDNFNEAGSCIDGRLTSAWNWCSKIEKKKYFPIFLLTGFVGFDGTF
Assay: co-IP; Myc-PfRbx1 co-expressed with FLAG-tagged proteins in HEK293T cells; anti-FLAG beads; anti-myc and anti-FLAG immunoblot

binding: binds
Substance: Myc-tagged PfRbx1 (P. falciparum)

No constants are given. Whether binding was seen depends on the method and setting. In cells and extracts the contact can be indirect. Binding calls can cover weak binding; strength is not graded here. Sequences can lack the tags named with a protein.
